Assay results from publication PMC4558508.
Results are given in words; binding and its absence hold for the method and conditions named. In cells and extracts the contact can be indirect. Some entries that bind do so weakly or less than the wild type.

The chains behind the UniProt entries cited, without tags or fusion partners. Residues count along the entry.
UniProt Q9Z0J4: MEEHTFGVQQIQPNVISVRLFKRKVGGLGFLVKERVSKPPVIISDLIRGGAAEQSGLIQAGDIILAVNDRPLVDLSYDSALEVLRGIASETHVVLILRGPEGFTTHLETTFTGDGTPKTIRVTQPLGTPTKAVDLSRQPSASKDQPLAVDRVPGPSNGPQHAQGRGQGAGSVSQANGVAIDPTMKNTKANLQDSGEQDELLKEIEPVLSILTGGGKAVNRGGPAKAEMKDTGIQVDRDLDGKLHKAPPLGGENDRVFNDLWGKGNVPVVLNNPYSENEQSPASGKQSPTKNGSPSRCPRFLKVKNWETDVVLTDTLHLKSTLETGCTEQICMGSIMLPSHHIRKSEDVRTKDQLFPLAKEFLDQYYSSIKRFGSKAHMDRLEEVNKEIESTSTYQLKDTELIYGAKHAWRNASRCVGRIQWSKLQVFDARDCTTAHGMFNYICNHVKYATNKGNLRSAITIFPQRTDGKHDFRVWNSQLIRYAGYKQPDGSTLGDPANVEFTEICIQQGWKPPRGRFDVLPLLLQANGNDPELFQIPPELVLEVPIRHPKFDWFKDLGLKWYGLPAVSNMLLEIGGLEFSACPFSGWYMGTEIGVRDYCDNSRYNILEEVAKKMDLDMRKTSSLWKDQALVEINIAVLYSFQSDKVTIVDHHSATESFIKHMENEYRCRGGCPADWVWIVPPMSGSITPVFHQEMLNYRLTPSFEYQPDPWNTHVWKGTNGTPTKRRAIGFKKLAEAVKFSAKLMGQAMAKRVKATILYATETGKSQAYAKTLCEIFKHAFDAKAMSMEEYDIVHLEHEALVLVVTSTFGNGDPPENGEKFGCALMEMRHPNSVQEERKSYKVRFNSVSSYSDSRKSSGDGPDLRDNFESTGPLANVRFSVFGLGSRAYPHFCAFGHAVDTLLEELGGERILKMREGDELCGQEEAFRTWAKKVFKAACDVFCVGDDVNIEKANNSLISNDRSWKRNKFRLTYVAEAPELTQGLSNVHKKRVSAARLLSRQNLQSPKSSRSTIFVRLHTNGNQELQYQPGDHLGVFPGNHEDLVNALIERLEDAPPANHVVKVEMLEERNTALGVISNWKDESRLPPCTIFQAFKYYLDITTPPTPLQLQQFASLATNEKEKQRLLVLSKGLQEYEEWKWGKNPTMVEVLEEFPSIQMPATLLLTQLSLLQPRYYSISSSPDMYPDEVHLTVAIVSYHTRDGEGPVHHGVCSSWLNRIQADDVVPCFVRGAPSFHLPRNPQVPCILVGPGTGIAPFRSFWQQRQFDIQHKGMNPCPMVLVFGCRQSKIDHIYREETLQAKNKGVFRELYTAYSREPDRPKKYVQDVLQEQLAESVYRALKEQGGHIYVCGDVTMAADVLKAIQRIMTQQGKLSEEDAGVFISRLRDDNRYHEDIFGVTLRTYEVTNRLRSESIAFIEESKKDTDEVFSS
UniProt Q01097, residues 27-1482: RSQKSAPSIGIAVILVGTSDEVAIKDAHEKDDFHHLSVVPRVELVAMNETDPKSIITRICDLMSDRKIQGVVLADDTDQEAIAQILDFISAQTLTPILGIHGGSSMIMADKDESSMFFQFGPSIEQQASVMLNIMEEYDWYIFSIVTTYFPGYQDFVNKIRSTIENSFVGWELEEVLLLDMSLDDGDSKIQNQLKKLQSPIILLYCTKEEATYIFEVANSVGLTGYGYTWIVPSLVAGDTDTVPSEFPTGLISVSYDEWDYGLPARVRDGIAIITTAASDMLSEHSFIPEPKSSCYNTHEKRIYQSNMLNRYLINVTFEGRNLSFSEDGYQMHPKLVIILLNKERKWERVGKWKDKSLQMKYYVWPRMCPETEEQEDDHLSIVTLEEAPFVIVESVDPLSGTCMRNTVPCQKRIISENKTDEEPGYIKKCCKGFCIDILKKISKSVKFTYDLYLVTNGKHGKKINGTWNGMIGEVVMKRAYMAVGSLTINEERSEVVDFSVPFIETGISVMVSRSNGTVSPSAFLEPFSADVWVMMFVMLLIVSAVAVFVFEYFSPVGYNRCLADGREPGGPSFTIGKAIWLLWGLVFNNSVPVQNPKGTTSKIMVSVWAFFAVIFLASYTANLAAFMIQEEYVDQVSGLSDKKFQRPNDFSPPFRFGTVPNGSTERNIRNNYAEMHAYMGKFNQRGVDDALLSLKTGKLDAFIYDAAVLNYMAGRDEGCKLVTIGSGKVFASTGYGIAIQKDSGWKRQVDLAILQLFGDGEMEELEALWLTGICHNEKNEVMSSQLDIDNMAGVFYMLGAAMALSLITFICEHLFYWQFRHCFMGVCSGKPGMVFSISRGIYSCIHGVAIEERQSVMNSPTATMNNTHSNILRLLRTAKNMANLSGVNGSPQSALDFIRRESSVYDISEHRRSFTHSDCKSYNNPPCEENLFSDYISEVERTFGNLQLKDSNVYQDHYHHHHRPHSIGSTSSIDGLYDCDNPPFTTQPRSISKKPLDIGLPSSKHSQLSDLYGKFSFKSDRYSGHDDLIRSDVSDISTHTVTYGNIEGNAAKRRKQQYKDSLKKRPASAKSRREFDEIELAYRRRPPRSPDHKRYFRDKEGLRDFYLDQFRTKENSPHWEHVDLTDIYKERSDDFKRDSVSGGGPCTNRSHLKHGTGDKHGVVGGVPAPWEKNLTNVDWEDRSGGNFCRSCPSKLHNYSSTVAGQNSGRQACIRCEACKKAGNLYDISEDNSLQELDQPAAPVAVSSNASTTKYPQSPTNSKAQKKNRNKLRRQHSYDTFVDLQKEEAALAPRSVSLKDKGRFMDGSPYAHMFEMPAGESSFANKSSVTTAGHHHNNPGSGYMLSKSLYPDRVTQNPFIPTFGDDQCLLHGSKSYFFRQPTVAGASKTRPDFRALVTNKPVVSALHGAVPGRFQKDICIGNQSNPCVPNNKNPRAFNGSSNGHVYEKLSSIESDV

How the values were obtained:
[1] = biological target: neuronal nitric oxide synthase (mouse (endogenous in cultured cortical neurons)) (UniProt Q9Z0J4); experiment: co-IP; reciprocal: extracts of cultured mouse cortical neurons (infected with LV-Flag-Homer1a or empty vector, after NMDA injury) precipitated with rabbit anti-nNOS and protein G-sepharose, overnight at 4°C; lysis buffer 50 mM Tris-HCl, 150 mM NaCl, 1% NP-40, 2 mM EDTA, pH 7.4; Western blot
[2] = biological target: NMDA receptor subunit NR2B (mouse (endogenous in cultured cortical neurons)) (UniProt Q01097); experiment: co-IP; extracts of cultured mouse cortical neurons (infected with LV-Flag-Homer1a or empty vector, after NMDA injury) precipitated with polyclonal rabbit anti-NR2B and protein G-sepharose, overnight at 4°C; lysis buffer 50 mM Tris-HCl, 150 mM NaCl, 1% NP-40, 2 mM EDTA, pH 7.4; Western blot

Substance | binding [1] | binding [2]
NMDA receptor subunit NR2B (from UniProt Q01097 27-1482) | binds | –
neuronal nitric oxide synthase (from UniProt Q9Z0J4 1-1429) (enzyme) | – | binds
